Structures are written as SMILES. The list shows a part of the results. Repeats are few or missing, and single values can be far off.

This experiment deals with Geomyces destructans. Put plainly: growth inhibition relative to DMSO control; higher = stronger growth inhibition. The settings on record: 10 µM; 15 °C; incubation time 10 days.
For the compound `C[C@@H]1CC[C@@]2(OC1)O[C@H]1C[C@H]3[C@@H]4CC[C@@H]5C[C@@H](O)CC[C@]5(C)[C@H]4CC[C@]3(C)[C@H]1[C@@H]2C`, the growth inhibition came out at 4.17%.

With `O=C(O)c1cc(O)c2ccc(Cl)cc2n1`, the growth inhibition turned out to be 0.462%.

With `COc1ccc(-c2cc(C(F)F)nn2-c2ccc(S(N)(=O)=O)cc2)cc1F`, the growth inhibition is -28.7%.

For the compound `CC(Oc1ccccc1)C(=O)N[C@@H]1C(=O)N2[C@@H]1SC(C)(C)[C@@H]2C(=O)O` (stereo partly specified), the growth inhibition was -29.7%.

As to `N[C@@H](C(=O)N[C@@H]1C(=O)N2C(C(=O)O)=C(Cl)CS[C@H]12)c1ccccc1`, the growth inhibition was -9.92%.

Take `C[C@H](CCC(=O)O)[C@H]1CC[C@H]2[C@@H]3CC[C@@H]4CCCC[C@]4(C)[C@H]3CC[C@]12C`: the growth inhibition is -5.41%.

Take `N=C(N)NC(=O)c1nc(Cl)c(N2CCCCCC2)nc1N`: the growth inhibition was -39.4%.

As for `OCC(O)C(O)C(O)C(O)C(O)CO` (stereo unspecified), the growth inhibition was -4.48%.

On to `COc1cc(O)c(C)c(O)c1`, for which the growth inhibition is -0.882%.

In the case of `Cn1nnnc1SCC1=C(C(=O)O)N2C(=O)[C@@H](NC(=O)[C@H](OC=O)c3ccccc3)[C@H]2SC1`, the growth inhibition was -1.9%.

For `CCOC(=O)[C@H](CCc1ccccc1)N[C@@H](C)C(=O)N1CCC[C@H]1C(=O)O`, the growth inhibition was -6.38%.

As for `CCc1cccc2c3c([nH]c12)C(CC)(CC(=O)O)OCC3` (stereo unspecified), the growth inhibition was -20.4%.

Turning to `Cc1noc(NS(=O)(=O)c2ccc(N)cc2)c1C`, the growth inhibition was 5.52%.

As for `CO[C@H]1C=C[C@@]23c4cc5c(cc4CN(C[C@@H]2O)[C@H]3C1)OCO5`, the growth inhibition was -12%.

Regarding `CN(C)CCCO[C@@H]1[C@H]2OC(C)(C)O[C@H]2O[C@@H]1[C@H](O)CO`, the growth inhibition was -41.4%.

For `C[C@]12CC[C@@H]3c4ccc(O)cc4CC[C@H]3[C@@H]1C[C@@H](O)[C@@H]2O`, the growth inhibition was determined as 67.9%.

Take `CCOc1ccc(C(=O)c2ccc(O)c(O)c2O)cc1`: the growth inhibition was found to be 11.2%.

Consider `CC1=C(CC(=O)O)c2cc(F)ccc2/C1=C\c1ccc([S+](C)[O-])cc1` (stereo unspecified), for which the growth inhibition is -24.2%.

As to `COc1ccc(-c2coc3c(OC)c(OC)cc(O)c3c2=O)cc1`, the growth inhibition was -15.3%.

On to `COc1ccc(C(=O)c2ccc(O)cc2)c(O)c1O`, for which the growth inhibition is -0.366%.

In the case of `CC(C)CCC[C@@H](C)[C@H]1CC[C@H]2[C@@H]3C(=O)C=C4C[C@@H](O)CC[C@]4(C)[C@H]3CC[C@]12C`, the growth inhibition was 13.2%.

For the compound `Cc1ccccc1N1C(=O)c2cc(S(N)(=O)=O)c(Cl)cc2NC1C` (stereo unspecified), the growth inhibition is -18.5%.

With `CO[C@H]1[C@H](O)[C@@H](O)[C@H](O)[C@H](O)[C@H]1O`, the growth inhibition was -11.7%.

Consider `OCCOCCN1CCN(C(c2ccccc2)c2ccc(Cl)cc2)CC1` (stereo unspecified), for which the growth inhibition worked out at 4.36%.

For `CC(CCC(=O)O)[C@H]1CCC2C3CC[C@@H]4CC(=O)CC[C@]4(C)C3C=C[C@@]21C` (stereo partly specified), the growth inhibition was 2.37%.

Consider `CC(=O)O[C@H]1C[C@@H](OC(C)=O)C(C)(C)C2C[C@@H](O)[C@]3(C)C(CC[C@@]4(C)[C@H](c5ccoc5)OC(=O)[C@H]5O[C@]543)[C@]21C` (stereo partly specified), for which the growth inhibition was -10.4%.
